Results as given in patent CN113929777A.
These are yes or no findings as the source states them, for the method shown. Some entries that bind do so weakly or less than the wild type.

Columns and labels:
重组肌红蛋白(自产) [1] = target: T1, 重组肌红蛋白(自产) (UniProt P02144); experiment: BLI, antibody captured on AMC sensors, MYO protein in serial dilution
T1 sequence (looked up): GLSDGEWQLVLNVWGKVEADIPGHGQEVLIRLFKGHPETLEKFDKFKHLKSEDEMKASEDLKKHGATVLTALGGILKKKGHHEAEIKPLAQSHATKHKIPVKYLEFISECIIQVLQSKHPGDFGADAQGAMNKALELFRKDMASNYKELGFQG

重组肌红蛋白(自产) [2] = target: T1, 重组肌红蛋白(自产); experiment: indirect ELISA, recombinant myoglobin coated at 1 ug/ml, CHO supernatant
重组肌红蛋白(自产) [3] = target: T1, 重组肌红蛋白(自产); experiment: indirect ELISA on coated recombinant myoglobin

Measured: binding

B1: 实施例1的肌红蛋白单克隆抗体(WT) (antibody, mouse IgG1, kappa, V domains shown)
VH: QIQLVQSGPELKKPGETVKISCKASGYTYTEFSVHWVKQAPGKGLKWMGWINSETSEPTYGDDFKGRFAFSLETSASAAYLQINNLKNEDSATYFCARRAYYLFGPFTYWGQGTLVTVSA
VL: DIVLTQSPASLAVSLGQRATISCRASKSVDFNGDSYMNWHQQKPGQPPKLLIYAASQRESGIPARFSGSGSGTDFTLNIHPVEEEDAATYYCQHSNEEPYTFGGGTKLEIKR
binds: 重组肌红蛋白(自产) [1] | 重组肌红蛋白(自产) [2] | 重组肌红蛋白(自产) [3]
